According to PubChem BioAssay (NCATS):
The other results are listed elsewhere or left out. These are further read-outs of the screen, such as a control signal, another cell line or another target. No call is given for them. Most of these compounds were active or inconclusive in the main read-out, so they are no random draw. Words in brackets tell the shape of the fitted curve; partial curves, single points and poor fits give uncertain potencies.

Assay: S16 Schwann cell PMP22 intronic element beta-lactamase assay (AID 624044)
Conditions: S16 rat Schwann cells, PMP22 element beta-lactamase FRET, 24 h; measured here: 460 nm blue channel
How it was run: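 Beta-lactamase reporter under a PMP22 intronic regulatory element in stable S16 rat Schwann cells; 24 h compound exposure. 460 nm blue signal normalized between DMSO (0%) and potassium clavulanate, with 535 nm FRET tracking viability; curves classed by r2 and response.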
For `CCCC1CCCCN1` (configuration not stated), the AC50 was 0.0562 µM [falling, full curve, poor fit]. For `Oc1cc[c]([Hg][Cl])cc1`, the AC50 was 5.62 µM [falling, full curve]. In the case of `C[C@]12O[C@H](C[C@]1(O)CO)n1c3ccccc3c3c4c(c5c6ccccc6n2c5c31)CNC4=O`, the AC50 is reported as 15.8 µM [falling, partial curve]. For `CC1(Cn2ccnn2)[C@H](C(=O)O)N2C(=O)C[C@H]2S1(=O)=O` (some centres not stated), the AC50 was 3.55 µM [falling, full curve]. In the case of `NC(=O)CS(=O)C(c1ccccc1)c1ccccc1` (configuration not stated), the AC50 is reported as 25.1 µM [falling, single point]. In the case of `O=C1C=C2C=CC3C[C@@]2(O1)C1CCCCN31` (some centres not stated), the AC50 is reported as 25.1 µM [falling, single point]. With `CC[C@H]1CN2CCc3cc(OC)c(OC)cc3[C@H]2C[C@@H]1C[C@@H]1NCCc2cc(OC)c(OC)cc21` the AC50 was 0.562 µM [falling, full curve]. For `O=c1ccc2cc(O[C@H]3O[C@@H](CO)[C@@H](O)[C@@H](O)[C@@H]3O)c(O)cc2o1`, the AC50 was 5.35 µM [rising, partial curve]. In the case of `C=C1Nc2ccccc2C(=O)N1c1ccccc1C`, the AC50 is reported as 25.1 µM [falling, partial curve, poor fit]. In the case of `CN(C)C(=S)SC(=S)N(C)C`, the AC50 is reported as 3.16 µM [falling, full curve, poor fit]. With `Oc1cccc[c]1[Hg][Cl]` the AC50 was 8.91 µM [falling, full curve]. For `CCC1(c2ccccc2)C(=O)NC(=O)N(C)C1=O` (configuration not stated), the AC50 was 25.1 µM [rising, single point].
